Here are results for 9 sequences from paper PMC5131957.

For part of these data: Weaker means in comparison with the reference protein, sequence or condition of that experiment. Construct, isoform or probe ends are uncertain for at least one entry. For part of these data: At least one verdict rests on a figure or table, not on a statement of the authors.

Data set [1] concerns the target p53T (last 30 aa, CTDBD) (human) (UniProt P04637). Briefly: EMSA. To be noted: weaker than TAT, EMSA: 5 mM Tris-HCl pH 8, 1 mM MgCl2, 0.01% Triton X-100, 50 mM KCl, on ice or 25 C, 30 min, pBSK/SmaI competitor 5-50 ng, recombinant protein, residues 363-393, label: 32P. For orientation: A gel shift assay detects complexes by their altered migration in electrophoresis.

Data set [2] has as its target p53CT (C-terminal segment: tetramerization domain + CTDBD) (human) (UniProt P04637). Briefly: EMSA. The conditions noted are these: weaker than TAT, EMSA: 5 mM Tris-HCl pH 8, 1 mM MgCl2, 0.01% Triton X-100, 50 mM KCl, on ice or 25 C, 30 min, pBSK/SmaI competitor 5-50 ng, recombinant protein, residues 320-393, label: 32P.
Data set [3] addresses p53 full length (human) (UniProt P04637). Briefly: EMSA. To be noted: EMSA: 5 mM Tris-HCl pH 8, 1 mM MgCl2, 0.01% Triton X-100, 50 mM KCl, on ice or 25 C, 30 min, recombinant protein, residues 1-393.
Data set [4] has the same target. Description: ELISA. To be noted: DO1 antibody, 2 mM Mg2+; ELISA: 1x PBS, 2 mM MgCl2, temperature not stated; recombinant protein; residues 1-393; label: 3' biotin on LockB; folded or branched DNA.
Setting [5] is: 1 mM Mg2+, 50 ng pBSK/SmaI competitor, weaker than TAT, pBSK/SmaI competitor 5-50 ng, label: 32P on lock strand, folded or branched DNA.

As for “AAAAAAAAAAAAAAAAAAAAAAAAAAAAAAAAAAAAAAAAAAAAAAAAAA [(dA)50]”, in data set [1] (single-stranded DNA), the binding result is reported as “binds more weakly”. In the case of “GACGGTATCGATAAGAGACATGCCTAGACATGCCTCTTGATATCGAATTC (double strand) [CON]”, the binding result in data set [2] is “binds more weakly”. With “GACGGTATCGATAAGGCATCATAGCGCATCATAGCCTTGATATCGAATTC / GAATTCGATATCAAGGCTATGATGCGCTATGAGGCCATATCGATACCGTC [NON]”, in data set [3] (1 mM Mg2+, 50 ng pBSK/SmaI competitor, pBSK/SmaI competitor …, label: 32P), the binding result is “binds more weakly”. As for “GGGGCCTTAGGTAAAAAAAAAAAAAAAATTTTTTTTTTTTTTTTTTGATGGTACCGCGG / CCGCGGTACCATTACCTAAGGCCCC [TA hairpin]”, the binding result in data set [3] (setting [5]) is given as “binds more weakly”.

In the case of “GGGGCCTTAGGTACTGCTGCTGCTGCTGCTGCTGCTGCTGCTGCTGATGGTACCGCGG / CCGCGGTACCATTACCTAAGGCCCC [CTG hairpin]”, in data set [3] (setting [5]), the binding result is reported as “binds more weakly”. Take “GGGGCCTTAGGTACTGCTGCTGCTGCTGCTGCTGCTGCTGCTGCTGATGGTACCGCGG / CCGCGGTACCATTACCTAAGGCCCCCAAC [CTG hairpin, biotinylated]”: the Kd in data set [4] worked out at 1.88 nM. Regarding “TTTTTTTTTTTTTTTTTTTTTTTTTTTTTTTTTTTTTTTTTTTTTTTTTT (double strand) [double-stranded TA, (dT)50.(dA)50]”, the binding result in data set [1] is listed as “binds more weakly”. On to “TTTTTTTTTTTTTTTTTTTTTTTTTTTTTTTTTTTTTTTTTTTTTTTTTT / AAAAAAAAAAAAAAAAAAAAAAAAAAAAAAAAAAAAAAAAAAAAAAAAAA / TTTTTTTTTTTTTTTTTTTTTTTTTTTTTTTTTTTTTTTTTTTTTTTTTT [T.A.T triplex (dT)50.(dA)50.(dT)50]”, for which the binding result in data set [3] (PAb421 antibody (aa 371-380), partial inhibition, pBSK/SmaI competitor 5-50 ng, label: 32P on (dA)50, folded or branched DNA) is “binds more weakly”. Regarding “TTTTTTTTTTTTTTTTTTTTTTTTTTTTTTTTTTTTTTTTTTTTTTTTTT [(dT)50]”, the binding result in data set [2] (single-stranded DNA) was “binds more weakly”.

As usually defined, the Kd is the concentration at which binding is half-saturated.
